Laboratory results reported in paper PMC8637366 (Slas Discovery, 2021).

The chains behind the UniProt entries cited, without tags or fusion partners. Residues count along the entry.
UniProt P06276, 29-602: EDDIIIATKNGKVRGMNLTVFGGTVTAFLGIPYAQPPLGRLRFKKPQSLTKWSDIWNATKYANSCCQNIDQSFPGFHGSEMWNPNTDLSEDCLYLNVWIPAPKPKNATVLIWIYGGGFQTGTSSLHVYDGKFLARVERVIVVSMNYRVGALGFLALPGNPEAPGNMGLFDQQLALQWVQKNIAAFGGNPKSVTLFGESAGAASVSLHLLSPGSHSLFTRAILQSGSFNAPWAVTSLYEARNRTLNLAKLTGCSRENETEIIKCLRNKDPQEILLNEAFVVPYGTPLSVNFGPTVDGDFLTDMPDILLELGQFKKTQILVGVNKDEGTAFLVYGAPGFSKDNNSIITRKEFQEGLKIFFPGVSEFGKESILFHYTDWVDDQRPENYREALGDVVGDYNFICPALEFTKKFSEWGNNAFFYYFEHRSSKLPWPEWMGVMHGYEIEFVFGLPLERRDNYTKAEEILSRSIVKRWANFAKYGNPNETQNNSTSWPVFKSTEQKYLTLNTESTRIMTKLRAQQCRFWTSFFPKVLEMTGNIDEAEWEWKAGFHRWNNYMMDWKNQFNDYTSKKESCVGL

Biological target: Recombinant human BChE (Homo sapiens, UniProt P06276)
Format: biochemical

## C#CC1(O)CCC2C3CCC4Cc5nc6nc7ccccc7n6cc5CC4(C)C3CCC21C (stereo not shown) [WIN 51708 hydrate]
  inhibition against BChE in the fluorescent assay: did not show inhibition
